Reference: article PMC9909590
Results are given in words; binding and its absence hold for the method and conditions named. In cells and extracts the contact can be indirect. Some results given as binding are weak or reduced against the parent protein; the word gives no strength. Tags and fused reporters may be left off the sequences shown.

Chains of the proteins cited; added tags and fusions are not shown.
UniProt P13681: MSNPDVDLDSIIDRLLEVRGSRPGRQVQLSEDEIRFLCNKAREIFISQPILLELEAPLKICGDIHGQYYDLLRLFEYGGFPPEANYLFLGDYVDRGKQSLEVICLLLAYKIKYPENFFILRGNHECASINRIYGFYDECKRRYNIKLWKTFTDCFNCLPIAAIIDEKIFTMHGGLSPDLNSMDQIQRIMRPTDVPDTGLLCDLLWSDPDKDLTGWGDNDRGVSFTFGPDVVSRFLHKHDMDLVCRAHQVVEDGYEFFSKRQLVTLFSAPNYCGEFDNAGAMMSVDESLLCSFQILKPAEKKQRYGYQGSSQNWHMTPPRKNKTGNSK

Assays:
[1] = target: Dis2-13Myc (PP1) (Schizosaccharomyces pombe) (UniProt P13681); experiment: co-IP; extracts of S. pombe cells expressing both Flag-tagged Rif1 and Myc-tagged PP1; PP1 immunoprecipitated with anti-c-Myc antibody on Protein G Dynabeads, 1 h; IP buffer 20 mM HEPES-KOH pH 7.6, 50 mM potassium acetate, 5 mM magnesium acetate, 0.1 M sorbitol, 0.1% Triton X-100, 2 mM DTT; co-immunoprecipitated Rif1 detected by blot
[2] = target: T1, Sds21-13Myc (PP1) (Schizosaccharomyces pombe) (UniProt P23880); experiment: as above
T1 sequence: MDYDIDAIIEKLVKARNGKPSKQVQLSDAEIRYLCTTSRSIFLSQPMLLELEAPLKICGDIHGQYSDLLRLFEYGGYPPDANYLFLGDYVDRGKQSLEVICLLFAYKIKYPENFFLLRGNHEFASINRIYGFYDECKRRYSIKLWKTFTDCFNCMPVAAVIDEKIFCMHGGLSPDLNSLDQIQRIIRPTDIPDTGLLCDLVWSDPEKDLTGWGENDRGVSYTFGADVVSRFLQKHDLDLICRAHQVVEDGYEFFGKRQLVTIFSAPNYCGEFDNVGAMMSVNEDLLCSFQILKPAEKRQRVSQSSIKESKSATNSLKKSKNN

B1: Rif1-Flag3 (full-length Rif1, 1-1,400 aa) (protein, UniProt Q96UP3 1-1400)
chain: MTKEIAVKEASNMLLQEPSTPSSQAVGLSSSPSSSIRKKKVNFSSELENSPGGNRPSFGLPKRGILKTSTPLSSIKQPNFQSFEGNESEKETSLQELQSSFCSGIENLQHVEKSARIETYSKLSSFLKIYTPSLPEDPIFPLLNQLCNFLLSDRCSNNSEGSPDFQLNTQANKLLSILLWHPTISSHIQPETATVFIEQSLNFLEGPKLTKALAAQHLHLLSCQKCPLSIHPLCNRILDVCFNISFPSLVIGQERLAVLTKILSQFPLEFSRRVVDWAPYLLACLVDASRPIREKALLLALDLSKHLYHDKLVARTILANFRSDIKGTAFVLIMTEQFEKLVIEEDDGVYVAHAWAAIISVLGGARISSWEYFNTWLKIIQLCFNSMNPLTKCAAQTSWIRLIHEFSLSETLTQATKRLTLLCQPISMVLGSRNLPTVKNAAMTTLIALIYACLRPGISDAMLSLLWDSVIVNILEKCALKNEVTIFESSNILLALFNTLSNGVWKDDRLVCRESVEAKELPKLNPVWVRANCSRTIEPVKTLLLLAKPDHTVKTTTPARKQHIRGLSYEQSSSVWSTYIKCLASAGQKEIKRSVETGRAICCICSSLHKFLYSKSIRKDELYVERVSRFALMVKSAIEAFGINTFVEASYLVSDNQLVLIDQTKAIDSYDHVPISPLIYLLHSLALLTNGTLFSTVHAAYSSILSSIEEYHLRFGLKLMLLWDCVSPLSDDGTLVLARVLVSHEVSRLTSEALLSELKSRNGNNSVEEGFSEEERSILLKLLSWNVKFCSISDAGSVNNLLQQYFTAIYKFEGCGSVFPFVVDPFTTILDDVLSFEANKVYSFAISLMKVSTFESCTKELPPVTLPENIRQHLDSYNHMVELYNTLLQRLSSSDQVDLQCRYLHELSEFIKKIPKEFIFHTICKLSKGLIPCFLMNAFPQLEKSTTLQKSCTNFCILILQLLLNSTATASNILESLSPLLTSGLKSISKEVVLAAIKFWNQVFGKFESEEYPIELQKTISYLSKTYIILLPFQSLCPGGKQANHQSSEKMSDILKGVDELRSVSKNGPYASSQDKGEKTTEFSGPGKPNNDNYIQIASVQELDDSSKGKAGKMPASKKNKRQKGDVKKIDETKNEATDMEESLTTPSGKVNKEVIVDDTSLRDEAIVPDKAIDVADNSNALLKENISSQSNRKADNNGTPSVNNSFTTANNDECSKENSQIEPEGQTASREGVLSTPRSTRKKRKLGRKSQSSNVNKEVAISEVSATLENVEVIERHGISEQGQNLDESACVLTNESSLSQTEIPEEKTENETTAVNGFENSKKRQFSSLLSGSIDTNNESNKVSSVEFDKSGPQDIIQSMTEATFEIEKNIQDLKSEEVQKLSDLLMRLQRAILSRIA
Q: For B1, which binding [1] is on record?
A: binds

Q: What about the binding [2] of the same binder?
A: binds
